The values that follow come from publication PMC11520136, “Design, synthesis, and biological investigations of new pyrazole derivatives as VEGFR2/CDK-2 inhibitors targeting liver cancer” (BMC Chemistry, 2024).

The assay relates to THLE2 cells. The experiment in a line: MTT cytotoxicity assay against THLE2. The class given is cell-based. The conditions noted are these: Homo sapiens, THLE-2, 48 h, normal liver cells, mean ± SD, n = 3. The protocol: The RPMI-1640 complete medium L-Glutamine (Lonza Verviers SPRL, Belgium, cat#12-604F) was used to cultivate the liver cancer (HepG2), normal liver (THLE2) cell lines purchased from the National Cancer Institute, Egypt. The cell lines were supplemented with 10% fetal bovine serum (Sigma-Aldrich, MO, USA) and 1% penicillin–streptomycin. Compounds were added to the cells on the second day at doses of “0, 0.01, 0.1, 1, 10, and 100 μM”. Cell viability was assessed after 48 h using the MTT solution (Promega, USA).

Molecules are shown by their SMILES.

For `CC[C@H](CO)Nc1nc(NCc2ccccc2)c2ncn(C(C)C)c2n1` [Roscovitine, reference compound], the IC50 came to 23.6 ± 0.98 µM.
